Source: publication PMC10104862
Results are given in words; binding and its absence hold for the method and conditions named. In cells and extracts the contact can be indirect. A yes stands for co-enrichment or nearness to the bait. Other partners may have been found. For some assays here: Tags and fused reporters may be left off the sequences shown.

Amino acid sequences for entries named in this document (tags omitted).
UniProt Q15554: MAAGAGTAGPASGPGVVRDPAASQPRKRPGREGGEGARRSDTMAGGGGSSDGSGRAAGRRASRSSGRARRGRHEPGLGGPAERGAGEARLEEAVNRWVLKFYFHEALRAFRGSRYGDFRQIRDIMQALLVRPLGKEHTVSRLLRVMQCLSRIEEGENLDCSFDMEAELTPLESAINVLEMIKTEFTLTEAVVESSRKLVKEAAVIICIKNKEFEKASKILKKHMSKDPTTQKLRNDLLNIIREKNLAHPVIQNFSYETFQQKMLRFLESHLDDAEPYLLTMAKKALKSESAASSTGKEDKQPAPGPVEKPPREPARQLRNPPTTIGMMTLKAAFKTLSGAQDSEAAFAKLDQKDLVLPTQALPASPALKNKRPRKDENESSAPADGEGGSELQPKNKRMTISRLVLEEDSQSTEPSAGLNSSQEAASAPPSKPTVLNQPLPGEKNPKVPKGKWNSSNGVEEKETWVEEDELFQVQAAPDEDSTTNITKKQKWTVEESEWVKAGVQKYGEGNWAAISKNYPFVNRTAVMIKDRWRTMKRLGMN
UniProt Q9NR30: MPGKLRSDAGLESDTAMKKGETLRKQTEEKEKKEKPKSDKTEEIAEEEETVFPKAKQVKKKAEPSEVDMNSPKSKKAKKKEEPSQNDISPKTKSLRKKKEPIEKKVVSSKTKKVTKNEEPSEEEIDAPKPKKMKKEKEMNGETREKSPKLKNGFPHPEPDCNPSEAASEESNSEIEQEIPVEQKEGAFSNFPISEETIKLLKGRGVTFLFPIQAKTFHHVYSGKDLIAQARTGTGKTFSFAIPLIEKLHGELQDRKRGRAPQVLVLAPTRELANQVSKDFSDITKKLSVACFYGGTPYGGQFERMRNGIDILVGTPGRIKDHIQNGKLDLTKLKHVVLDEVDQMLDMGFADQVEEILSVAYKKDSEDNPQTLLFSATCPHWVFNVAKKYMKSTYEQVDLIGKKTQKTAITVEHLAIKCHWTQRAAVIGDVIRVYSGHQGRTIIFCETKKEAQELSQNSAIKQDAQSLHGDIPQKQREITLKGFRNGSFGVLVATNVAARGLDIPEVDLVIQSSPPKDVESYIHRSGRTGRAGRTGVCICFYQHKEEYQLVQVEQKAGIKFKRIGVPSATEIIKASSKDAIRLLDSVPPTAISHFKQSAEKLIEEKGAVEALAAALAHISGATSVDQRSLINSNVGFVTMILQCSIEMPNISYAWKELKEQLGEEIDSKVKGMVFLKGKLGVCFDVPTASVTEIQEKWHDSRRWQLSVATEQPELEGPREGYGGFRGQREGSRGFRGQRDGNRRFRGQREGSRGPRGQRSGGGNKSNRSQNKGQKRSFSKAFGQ
UniProt P78527: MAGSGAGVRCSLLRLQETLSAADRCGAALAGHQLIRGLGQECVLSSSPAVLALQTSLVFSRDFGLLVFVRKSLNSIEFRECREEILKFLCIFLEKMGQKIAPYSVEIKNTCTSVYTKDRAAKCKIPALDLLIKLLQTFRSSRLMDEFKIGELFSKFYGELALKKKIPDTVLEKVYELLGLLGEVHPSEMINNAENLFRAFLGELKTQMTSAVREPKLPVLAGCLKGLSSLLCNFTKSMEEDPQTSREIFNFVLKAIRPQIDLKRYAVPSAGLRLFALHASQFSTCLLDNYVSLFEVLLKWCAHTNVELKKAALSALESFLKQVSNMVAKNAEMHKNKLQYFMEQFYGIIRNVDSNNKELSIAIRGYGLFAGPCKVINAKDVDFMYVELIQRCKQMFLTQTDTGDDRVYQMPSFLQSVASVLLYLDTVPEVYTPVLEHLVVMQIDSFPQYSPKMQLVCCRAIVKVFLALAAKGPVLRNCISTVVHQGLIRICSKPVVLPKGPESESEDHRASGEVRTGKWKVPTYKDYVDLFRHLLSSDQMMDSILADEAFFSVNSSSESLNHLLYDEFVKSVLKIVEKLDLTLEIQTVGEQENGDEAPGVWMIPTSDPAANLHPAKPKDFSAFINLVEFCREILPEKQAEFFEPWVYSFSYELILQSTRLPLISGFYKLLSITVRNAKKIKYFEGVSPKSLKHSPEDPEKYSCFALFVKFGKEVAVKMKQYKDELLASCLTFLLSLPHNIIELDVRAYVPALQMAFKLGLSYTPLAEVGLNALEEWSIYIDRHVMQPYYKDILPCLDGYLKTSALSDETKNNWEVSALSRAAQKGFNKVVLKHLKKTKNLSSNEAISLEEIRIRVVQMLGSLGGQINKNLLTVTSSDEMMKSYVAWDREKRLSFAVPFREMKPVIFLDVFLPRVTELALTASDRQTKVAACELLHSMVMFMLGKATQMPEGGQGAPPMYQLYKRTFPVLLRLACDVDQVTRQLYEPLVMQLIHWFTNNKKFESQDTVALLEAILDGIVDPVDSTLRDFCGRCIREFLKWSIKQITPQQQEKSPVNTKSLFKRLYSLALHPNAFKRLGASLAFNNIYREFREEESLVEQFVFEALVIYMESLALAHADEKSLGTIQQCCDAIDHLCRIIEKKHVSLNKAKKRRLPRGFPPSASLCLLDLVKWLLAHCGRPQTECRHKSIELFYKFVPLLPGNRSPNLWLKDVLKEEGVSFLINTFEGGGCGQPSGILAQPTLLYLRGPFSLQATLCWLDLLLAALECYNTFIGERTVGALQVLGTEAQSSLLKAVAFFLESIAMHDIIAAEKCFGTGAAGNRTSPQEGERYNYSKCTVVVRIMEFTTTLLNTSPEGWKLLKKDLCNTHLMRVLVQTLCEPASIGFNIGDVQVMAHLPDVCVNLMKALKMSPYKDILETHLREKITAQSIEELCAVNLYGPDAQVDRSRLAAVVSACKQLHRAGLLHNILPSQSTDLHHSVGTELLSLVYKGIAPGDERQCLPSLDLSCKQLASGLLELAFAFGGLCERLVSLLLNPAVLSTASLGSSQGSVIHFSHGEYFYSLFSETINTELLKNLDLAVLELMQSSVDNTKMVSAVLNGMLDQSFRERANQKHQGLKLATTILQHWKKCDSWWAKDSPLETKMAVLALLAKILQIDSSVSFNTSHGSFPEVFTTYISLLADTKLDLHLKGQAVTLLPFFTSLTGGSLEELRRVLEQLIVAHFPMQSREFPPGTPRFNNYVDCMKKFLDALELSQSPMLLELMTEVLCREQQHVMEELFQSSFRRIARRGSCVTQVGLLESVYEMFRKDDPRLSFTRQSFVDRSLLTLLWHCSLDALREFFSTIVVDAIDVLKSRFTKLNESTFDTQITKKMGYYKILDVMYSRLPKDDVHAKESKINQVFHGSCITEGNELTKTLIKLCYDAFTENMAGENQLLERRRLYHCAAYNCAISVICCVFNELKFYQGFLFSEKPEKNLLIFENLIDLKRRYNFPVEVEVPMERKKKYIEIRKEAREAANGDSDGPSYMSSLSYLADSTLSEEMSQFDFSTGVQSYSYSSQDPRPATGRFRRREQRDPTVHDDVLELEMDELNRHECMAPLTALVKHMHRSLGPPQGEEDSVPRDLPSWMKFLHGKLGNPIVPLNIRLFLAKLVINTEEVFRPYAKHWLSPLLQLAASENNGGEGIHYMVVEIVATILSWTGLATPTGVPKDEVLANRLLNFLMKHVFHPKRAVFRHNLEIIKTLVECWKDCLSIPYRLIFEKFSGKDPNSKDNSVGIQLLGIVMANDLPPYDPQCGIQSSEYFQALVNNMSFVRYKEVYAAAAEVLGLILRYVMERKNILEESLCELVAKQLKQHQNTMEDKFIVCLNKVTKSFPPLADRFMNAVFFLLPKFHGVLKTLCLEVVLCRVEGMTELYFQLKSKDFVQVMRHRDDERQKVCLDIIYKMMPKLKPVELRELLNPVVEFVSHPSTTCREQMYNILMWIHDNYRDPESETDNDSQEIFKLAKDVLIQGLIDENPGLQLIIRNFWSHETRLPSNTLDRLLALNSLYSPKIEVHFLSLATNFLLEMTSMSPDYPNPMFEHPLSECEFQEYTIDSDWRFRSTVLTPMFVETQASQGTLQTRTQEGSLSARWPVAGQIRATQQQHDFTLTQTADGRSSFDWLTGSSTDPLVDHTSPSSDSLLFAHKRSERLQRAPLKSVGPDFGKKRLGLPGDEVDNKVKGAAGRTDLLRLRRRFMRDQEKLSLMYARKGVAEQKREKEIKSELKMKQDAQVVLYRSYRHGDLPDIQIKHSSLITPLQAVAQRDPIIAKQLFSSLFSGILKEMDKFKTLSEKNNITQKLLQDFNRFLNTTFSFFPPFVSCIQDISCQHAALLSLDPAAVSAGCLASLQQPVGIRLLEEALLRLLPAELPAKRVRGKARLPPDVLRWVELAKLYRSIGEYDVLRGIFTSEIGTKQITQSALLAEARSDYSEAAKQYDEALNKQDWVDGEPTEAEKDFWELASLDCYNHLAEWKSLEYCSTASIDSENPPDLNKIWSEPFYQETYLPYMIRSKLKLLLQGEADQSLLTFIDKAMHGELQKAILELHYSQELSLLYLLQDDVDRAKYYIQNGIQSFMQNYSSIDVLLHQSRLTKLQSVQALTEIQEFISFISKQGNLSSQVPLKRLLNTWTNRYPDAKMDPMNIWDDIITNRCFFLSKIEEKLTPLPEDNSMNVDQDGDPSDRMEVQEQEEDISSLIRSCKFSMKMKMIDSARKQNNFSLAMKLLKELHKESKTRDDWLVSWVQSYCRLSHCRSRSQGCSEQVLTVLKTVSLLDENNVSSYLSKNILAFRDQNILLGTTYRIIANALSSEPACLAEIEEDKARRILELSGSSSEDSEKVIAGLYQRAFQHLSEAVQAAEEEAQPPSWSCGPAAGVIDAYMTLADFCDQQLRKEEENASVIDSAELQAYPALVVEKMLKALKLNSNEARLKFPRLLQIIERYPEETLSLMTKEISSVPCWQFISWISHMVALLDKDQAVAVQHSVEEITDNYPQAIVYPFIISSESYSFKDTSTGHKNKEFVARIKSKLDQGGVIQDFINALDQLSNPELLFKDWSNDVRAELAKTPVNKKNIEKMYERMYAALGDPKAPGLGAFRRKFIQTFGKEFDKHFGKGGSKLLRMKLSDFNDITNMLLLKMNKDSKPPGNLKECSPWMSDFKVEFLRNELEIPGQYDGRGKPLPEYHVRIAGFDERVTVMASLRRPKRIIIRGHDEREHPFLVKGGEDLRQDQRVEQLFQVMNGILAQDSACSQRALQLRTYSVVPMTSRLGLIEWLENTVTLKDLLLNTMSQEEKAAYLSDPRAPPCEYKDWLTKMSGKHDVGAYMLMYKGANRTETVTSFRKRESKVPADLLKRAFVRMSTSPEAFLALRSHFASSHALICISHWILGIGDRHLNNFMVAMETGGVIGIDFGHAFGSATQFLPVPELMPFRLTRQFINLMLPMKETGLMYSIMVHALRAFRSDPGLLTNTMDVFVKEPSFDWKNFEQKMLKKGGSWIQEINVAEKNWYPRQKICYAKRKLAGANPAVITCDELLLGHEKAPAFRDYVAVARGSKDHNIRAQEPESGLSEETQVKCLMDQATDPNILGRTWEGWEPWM

Assays:
[1] = target: Flag-TRF2 (Telomeric repeat-binding factor 2), wild type (not stated (human or mouse cDNA cloned)) (UniProt Q15554); assay: affinity purification with mass spectrometry; IP-MS with Flag-TRF2 and Flag-vector as baits; one representative experiment
[2] = target: GST-RAP1^WT (Repressor/activator protein 1) (UniProt Q9NYB0); assay: affinity purification with mass spectrometry; GST pull-down from 293F cell lysates with GST-RAP1^WT and GST-RAP1^ΔBRCT as baits, then mass spectrometry; only the target purified

Row | binding [1] | binding [2] | Substance
1 | binds |  | DDX21, DEAD-box RNA helicase (endogenous, found by IP-MS) (from UniProt Q9NR30 1-783)
2 |  | binds | PRKDC (endogenous, 293F lysate) (from UniProt P78527 1-4128)
